The values below come from the supplement of paper PMC5355238.

Molecules are shown by their SMILES. “And” between values parts separate entries of the source, which are not always exact repeats. Identical values can stand only once. Counter-ions that a name gives are not always drawn. This is one part of the list. Most values lie at the level of the controls, where differences are scatter.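 Reh is a human leukemia cell line; the read-out is the median γH2AX antibody signal in S-phase cells by flow cytometry, with the score counting standard deviations from the median difference of each paired set of plates. Scores above 2.5 were called candidate hits, while scores below -2 mark compounds that lowered the MK1775-induced damage.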

For the test, the system named is Reh. Briefly: Z' of S-phase gammaH2AX difference (drug + MK1775 minus drug alone) (Z-score); higher = stronger synergistic S-phase DNA damage with MK1775. The note with it: MK1775 concentration 400 nM; first compound 10 µM; 4 h.
Regarding `CC(C)n1c(/C=C/C(O)CC(O)CC(=O)O)c(-c2ccc(F)cc2)c2ccccc21` (stereo not given) [Fluvastatin sodium (Lescol)] + C=CCn1c(=O)c2cnc(Nc3ccc(N4CCN(C)CC4)cc3)nc2n1-c1cccc(C(C)(C)O)n1 [MK1775], the “Z' of S-phase gammaH2AX difference (Z-score)” value was inactive: 0.0377.
With `CCCCNc1cc(C(=O)O)cc(S(N)(=O)=O)c1Oc1ccccc1` [Bumetanide] + C=CCn1c(=O)c2cnc(Nc3ccc(N4CCN(C)CC4)cc3)nc2n1-c1cccc(C(C)(C)O)n1 [MK1775] the figure was inactive: -0.00334; with `Cn1ccnc1` [1-Methylimidazole] + C=CCn1c(=O)c2cnc(Nc3ccc(N4CCN(C)CC4)cc3)nc2n1-c1cccc(C(C)(C)O)n1 [MK1775], inactive: -0.097.
The result for `CCN(CC)CCOC(=O)c1ccc(N)cc1` [Procaine hydrochloride] + C=CCn1c(=O)c2cnc(Nc3ccc(N4CCN(C)CC4)cc3)nc2n1-c1cccc(C(C)(C)O)n1 [MK1775] reads inactive: 0.767; that for `CC(=O)N[C@@H](CS)C(=O)O` [N-Acetyl-L-Cysteine] + C=CCn1c(=O)c2cnc(Nc3ccc(N4CCN(C)CC4)cc3)nc2n1-c1cccc(C(C)(C)O)n1 [MK1775], inactive: 0.237.
With `C[C@]1(c2nc3c(C(N)=O)cccc3[nH]2)CCCN1` [ABT-888 (Veliparib)] + C=CCn1c(=O)c2cnc(Nc3ccc(N4CCN(C)CC4)cc3)nc2n1-c1cccc(C(C)(C)O)n1 [MK1775] the figure was inactive: 0.274; with `N#C/C(=C\c1ccc(O)c(O)c1)C(=O)NCCc1ccccc1` [Tyrphostin AG 698] + C=CCn1c(=O)c2cnc(Nc3ccc(N4CCN(C)CC4)cc3)nc2n1-c1cccc(C(C)(C)O)n1 [MK1775], inactive: -0.274.
`O=c1cc(-c2ccccc2)[nH]c2nc(Cl)ccc12` [7-Chloro-4-hydroxy-2-phenyl-1,8-naphthyridine] + C=CCn1c(=O)c2cnc(Nc3ccc(N4CCN(C)CC4)cc3)nc2n1-c1cccc(C(C)(C)O)n1 [MK1775]: the “Z' of S-phase gammaH2AX difference (Z-score)” value was inactive: 0.932.
The result for `O=C(O)Cc1cccc(OCCCN(Cc2cccc(C(F)(F)F)c2Cl)CC(c2ccccc2)c2ccccc2)c1` + C=CCn1c(=O)c2cnc(Nc3ccc(N4CCN(C)CC4)cc3)nc2n1-c1cccc(C(C)(C)O)n1 [MK1775] reads inactive: 0.209.
With `O=c1[nH]c(=O)c2nc3ccccc3nc2[nH]1` [Alloxazine] + C=CCn1c(=O)c2cnc(Nc3ccc(N4CCN(C)CC4)cc3)nc2n1-c1cccc(C(C)(C)O)n1 [MK1775], the “Z' of S-phase gammaH2AX difference (Z-score)” value is inactive: -0.234.
Take `CC(=O)O[C@H]1C[C@@]2(C)[C@@H](C[C@@H](O)[C@H]3[C@@]4(C)CC[C@@H](O)[C@@H](C)[C@@H]4CC[C@@]32C)/C1=C(\CCC=C(C)C)C(=O)O` [Fusidic acid sodium] + C=CCn1c(=O)c2cnc(Nc3ccc(N4CCN(C)CC4)cc3)nc2n1-c1cccc(C(C)(C)O)n1 [MK1775]: the “Z' of S-phase gammaH2AX difference (Z-score)” value was inactive: 0.333.
Take `O=c1[nH]c2cc(C(F)(F)F)ccc2n1-c1cc(C(F)(F)F)ccc1O` + C=CCn1c(=O)c2cnc(Nc3ccc(N4CCN(C)CC4)cc3)nc2n1-c1cccc(C(C)(C)O)n1 [MK1775]: the “Z' of S-phase gammaH2AX difference (Z-score)” value is inactive: -0.34.
For the molecule `N[C@@H](CCCC(=O)O)C(=O)O` [L-2-aminoadipic acid] + C=CCn1c(=O)c2cnc(Nc3ccc(N4CCN(C)CC4)cc3)nc2n1-c1cccc(C(C)(C)O)n1 [MK1775], the “Z' of S-phase gammaH2AX difference (Z-score)” value is inactive: 0.0869.
For `Oc1cc2c(cc1O)CN(C(=S)NCCc1ccc(Cl)cc1)CCC2` [Capsazepine] + C=CCn1c(=O)c2cnc(Nc3ccc(N4CCN(C)CC4)cc3)nc2n1-c1cccc(C(C)(C)O)n1 [MK1775], the “Z' of S-phase gammaH2AX difference (Z-score)” value was inactive: 0.104.
The result for `NC[C@@H](O)c1ccc(O)c(O)c1` [L(-)-Norepinephrine bitartrate] + C=CCn1c(=O)c2cnc(Nc3ccc(N4CCN(C)CC4)cc3)nc2n1-c1cccc(C(C)(C)O)n1 [MK1775] reads inactive: -0.0334.
For the molecule `Nc1nc(Cl)nc2c1ncn2[C@@H]1O[C@H](COP(=O)(O)OP(=O)(O)OP(=O)(O)O)[C@H](O)C1O` (stereo not given in full) [2-Chloroadenosine triphosphate tetrasodium] + C=CCn1c(=O)c2cnc(Nc3ccc(N4CCN(C)CC4)cc3)nc2n1-c1cccc(C(C)(C)O)n1 [MK1775], the “Z' of S-phase gammaH2AX difference (Z-score)” value is inactive: 0.478.
The result for `COc1ccc2c(c1)c(CC(=O)N1CCOCC1)c(C)n2C(=O)c1ccc(Cl)cc1` [Indomethacin morpholinylamide] + C=CCn1c(=O)c2cnc(Nc3ccc(N4CCN(C)CC4)cc3)nc2n1-c1cccc(C(C)(C)O)n1 [MK1775] reads inactive: -0.109; that for `COc1ccc(CCN2CCN(CCCc3ccccc3)CC2)cc1OC` + C=CCn1c(=O)c2cnc(Nc3ccc(N4CCN(C)CC4)cc3)nc2n1-c1cccc(C(C)(C)O)n1 [MK1775], inactive: 0.35.
The result for `O=C1Cc2c([nH]c3ccc(Br)cc23)-c2ccccc2N1` [Kenpaullone] + C=CCn1c(=O)c2cnc(Nc3ccc(N4CCN(C)CC4)cc3)nc2n1-c1cccc(C(C)(C)O)n1 [MK1775] reads inactive: -2.5; that for `CNCCCC12CCC(c3ccccc31)c1ccccc12` [Maprotiline hydrochloride] + C=CCn1c(=O)c2cnc(Nc3ccc(N4CCN(C)CC4)cc3)nc2n1-c1cccc(C(C)(C)O)n1 [MK1775], inactive: 0.277; that for `C[C@]12C=CC(=O)C=C1CC[C@H]1[C@@H]3C[C@@H](O)[C@](O)(C(=O)CO)[C@@]3(C)C[C@H](O)[C@@]12F` [Triamcinolone] + C=CCn1c(=O)c2cnc(Nc3ccc(N4CCN(C)CC4)cc3)nc2n1-c1cccc(C(C)(C)O)n1 [MK1775], inactive: -0.304.
With `N#Cc1ccc(COC[C@H]2O[C@@H](n3c(NCc4ccc(Cl)c(Cl)c4)nc4c(N)ncnc43)[C@H](O)[C@@H]2O)cc1` + C=CCn1c(=O)c2cnc(Nc3ccc(N4CCN(C)CC4)cc3)nc2n1-c1cccc(C(C)(C)O)n1 [MK1775] the figure was inactive: -0.15.
Consider `CCCCCCCC/C=C\CCCCCCCC(=O)NCCO` [N-Oleoylethanolamine] + C=CCn1c(=O)c2cnc(Nc3ccc(N4CCN(C)CC4)cc3)nc2n1-c1cccc(C(C)(C)O)n1 [MK1775], for which the “Z' of S-phase gammaH2AX difference (Z-score)” value is inactive: 0.189.
With `CNCC[C@@H](Oc1ccc(C(F)(F)F)cc1)c1ccccc1` [R-(-)-Fluoxetine hydrochloride] + C=CCn1c(=O)c2cnc(Nc3ccc(N4CCN(C)CC4)cc3)nc2n1-c1cccc(C(C)(C)O)n1 [MK1775] the figure was inactive: -0.435.
In the case of `Clc1ccc(C(c2ccc(Cl)cc2)[n+]2ccn(CC(OCc3ccc(Cl)cc3Cl)c3ccc(Cl)cc3Cl)c2)cc1` (stereo not given) [Calmidazolium chloride] + C=CCn1c(=O)c2cnc(Nc3ccc(N4CCN(C)CC4)cc3)nc2n1-c1cccc(C(C)(C)O)n1 [MK1775], the “Z' of S-phase gammaH2AX difference (Z-score)” value was inactive: -0.414.
Turning to `C[C@H]1O[C@@H](n2cc(F)c(=O)[nH]c2=O)[C@H](O)[C@@H]1O` [5-fluoro-5'-deoxyuridine] + C=CCn1c(=O)c2cnc(Nc3ccc(N4CCN(C)CC4)cc3)nc2n1-c1cccc(C(C)(C)O)n1 [MK1775], the “Z' of S-phase gammaH2AX difference (Z-score)” value is inactive: -0.138.
With `O=c1c(-c2ccc(O)cc2)coc2cc(O)ccc12` [Daidzein] + C=CCn1c(=O)c2cnc(Nc3ccc(N4CCN(C)CC4)cc3)nc2n1-c1cccc(C(C)(C)O)n1 [MK1775] the figure was inactive: 0.658.
Regarding `CC(C)NC[C@H](O)COc1cccc2ccccc12` [(S)-Propranolol hydrochloride] + C=CCn1c(=O)c2cnc(Nc3ccc(N4CCN(C)CC4)cc3)nc2n1-c1cccc(C(C)(C)O)n1 [MK1775], the “Z' of S-phase gammaH2AX difference (Z-score)” value was inactive: -0.767.
The result for `CC(=O)CCCCn1c(=O)c2c(ncn2C)n(C)c1=O` [Pentoxifylline] + C=CCn1c(=O)c2cnc(Nc3ccc(N4CCN(C)CC4)cc3)nc2n1-c1cccc(C(C)(C)O)n1 [MK1775] reads inactive: 0.209.
With `O=C(O)C=C1CCCc2ccccc2C1O` (stereo not given) + C=CCn1c(=O)c2cnc(Nc3ccc(N4CCN(C)CC4)cc3)nc2n1-c1cccc(C(C)(C)O)n1 [MK1775], the “Z' of S-phase gammaH2AX difference (Z-score)” value is inactive: -0.898.
In the case of `CN(C)CCOc1ccc(-c2nc(-c3ccncc3)c(-c3ccc4c(c3)CC/C4=N\O)[nH]2)cc1` + C=CCn1c(=O)c2cnc(Nc3ccc(N4CCN(C)CC4)cc3)nc2n1-c1cccc(C(C)(C)O)n1 [MK1775], the “Z' of S-phase gammaH2AX difference (Z-score)” value is inactive: -0.333.
Regarding `C/C(=C\C(=O)Nc1ccccc1C(=O)O)c1ccc2ccccc2c1` + C=CCn1c(=O)c2cnc(Nc3ccc(N4CCN(C)CC4)cc3)nc2n1-c1cccc(C(C)(C)O)n1 [MK1775], the “Z' of S-phase gammaH2AX difference (Z-score)” value was inactive: 0.734 and inactive: 0.146.
The result for `COc1c(C)c2c(c(O)c1C/C=C(\C)CCC(=O)O)C(=O)OC2` [Mycophenolic (Mycophenolate)] + C=CCn1c(=O)c2cnc(Nc3ccc(N4CCN(C)CC4)cc3)nc2n1-c1cccc(C(C)(C)O)n1 [MK1775] reads inactive: 1.39.
The result for `Cc1ccnc(NS(=O)(=O)c2ccc(NC(=O)Nc3ccc(S(=O)(=O)Nc4nccc(C)n4)cc3)cc2)n1` + C=CCn1c(=O)c2cnc(Nc3ccc(N4CCN(C)CC4)cc3)nc2n1-c1cccc(C(C)(C)O)n1 [MK1775] reads inactive: 0.051; that for `COc1cc(C(O)CO)ccc1OS(=O)(=O)O` (stereo not given) [MHPG sulfate potassium] + C=CCn1c(=O)c2cnc(Nc3ccc(N4CCN(C)CC4)cc3)nc2n1-c1cccc(C(C)(C)O)n1 [MK1775], inactive: -0.921.
